IC50 data for one compound are collected here from patent publication US5278174A, “Sigma binding site agents” (priority 1991, dated 1994).

Amino acid sequences for entries named in this document (tags omitted).
UniProt Q60492, whole entry: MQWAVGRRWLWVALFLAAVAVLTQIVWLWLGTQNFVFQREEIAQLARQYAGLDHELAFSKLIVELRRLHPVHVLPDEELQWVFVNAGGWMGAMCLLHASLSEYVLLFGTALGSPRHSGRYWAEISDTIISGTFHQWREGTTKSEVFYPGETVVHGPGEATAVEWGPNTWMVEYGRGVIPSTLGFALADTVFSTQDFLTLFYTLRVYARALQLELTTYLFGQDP

For test [1], the target named is sigma sites. The experiment in a line: Sigma receptor binding assay, [3H]DTG. Conditions: 5 nM [3H]DTG; guinea pig whole brain; room temperature, 45 minutes; read-out: Receptor Potency Sigma DTG (IC50, nMol). As to the method:
(§1) Two selective sigma receptor ligands, [^3 H](+)-3-[3-hydroxyphenyl]-N-(1 propyl)piperidine [(+)-3-PPP] and [^3 H] Ditolylguanidine (DTG), were used to label sigma sites in brain tissue.
(§2) The tissue preparation and assay conditions employed when using either of these ligands were essentially the same. Frozen whole guinea pig brains (obtained from Pel-Freez, Rogers, Ariz.) were homogenized in 10 volumes of ice-cold 0.32M sucrose. The resulting pellet was resuspended in 10 volumes of ice-cold 50 mM Tris-HCl (pH 7.4), incubated at 37 ° C. for 30 minutes, and centrifuged at 22,000 × g for 20 minutes. The final tissue suspension was made in 50 mM Tris-HCl (pH 7.4) to a concentration of 20 mg original wet weight/mL. 800 μL of tissue suspension was added to tubes containing 5 nM [^3 H] DTG or 4 nM [^3 H] […] The final assay volume was 1 mL. The assay tubes were gently vortexed, and the binding reaction was carried out for 45 minutes at room temperature. The reaction was terminated by rapid filtration over Whatman GF/B glass fiber filters, which were then rinsed 3x with 5 mL of 50 mM Tris-HCl. Filter bound radioactivity was quantified using liquid scintillation spectrometry.

The target in test [2] is T1, sigma sites (Cavia porcellus, UniProt Q60492).
T1 construct: Frozen whole guinea pig brains; tissue Pel-Freez, Rogers, Ariz; host or cells: whole guinea pig brain membranes
The experiment in a line: Sigma receptor binding assay, [3H](+)-3-PPP. Also on record: species or system guinea pig. As to the method:
as §1, §2

Broadly, the IC50 is the concentration that gives 50% inhibition. For the compound `CN1CCN(C2=Nc3cc(Cl)ccc3Nc3ccccc32)CC1` [Clozapine, reference compound], the values for the IC50 in test [1] and in test [2] were 15 µM and 34.6 µM, respectively.
